Results as given in patent publication US7119077.
For some of these results: A weaker result is weaker than the reference pair of the same experiment. For some of these results: Tags and fusion partners may be left off the protein sequences shown. For some of these results: At least one result comes from cells or an extract, where the contact may be indirect. For some of these results: Construct, isoform or probe ends are uncertain for at least one entry.

Chains of the proteins cited; added tags and fusions are not shown. A change or cut given only in a name is not applied to a line headed by its entry. Chains listed by the source or under a name are the forms on record and can include a tag or linker.
UniProt P37230: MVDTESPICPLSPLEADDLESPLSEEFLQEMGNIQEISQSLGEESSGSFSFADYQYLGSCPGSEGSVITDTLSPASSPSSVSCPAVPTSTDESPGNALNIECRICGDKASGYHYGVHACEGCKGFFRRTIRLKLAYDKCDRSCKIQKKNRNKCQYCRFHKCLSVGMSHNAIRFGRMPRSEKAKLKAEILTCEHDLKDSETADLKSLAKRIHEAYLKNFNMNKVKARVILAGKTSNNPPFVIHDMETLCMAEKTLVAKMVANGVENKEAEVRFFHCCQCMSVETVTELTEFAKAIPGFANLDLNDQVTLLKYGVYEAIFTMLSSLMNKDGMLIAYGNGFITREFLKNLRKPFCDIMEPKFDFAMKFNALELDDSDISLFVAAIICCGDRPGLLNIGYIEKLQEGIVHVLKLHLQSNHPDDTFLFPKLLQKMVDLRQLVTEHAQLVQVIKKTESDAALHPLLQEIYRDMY
RARα + usp of S2 or embryo extract (Homo sapiens / Drosophila melanogaster), one chain, as listed by the source, chain 1 of 2: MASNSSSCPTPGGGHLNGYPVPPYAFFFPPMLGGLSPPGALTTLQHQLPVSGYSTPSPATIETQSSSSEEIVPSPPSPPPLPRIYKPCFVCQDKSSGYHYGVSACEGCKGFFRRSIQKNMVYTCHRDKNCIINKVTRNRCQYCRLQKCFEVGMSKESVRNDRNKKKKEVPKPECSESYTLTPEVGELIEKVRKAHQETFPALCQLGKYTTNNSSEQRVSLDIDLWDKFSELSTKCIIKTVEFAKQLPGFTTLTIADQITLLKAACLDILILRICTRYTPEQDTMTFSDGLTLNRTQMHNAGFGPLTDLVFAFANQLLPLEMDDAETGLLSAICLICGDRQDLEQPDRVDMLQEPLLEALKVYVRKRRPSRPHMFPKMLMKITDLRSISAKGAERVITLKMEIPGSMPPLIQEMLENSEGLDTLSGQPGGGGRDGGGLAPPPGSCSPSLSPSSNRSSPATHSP
EcR/usp complex (Schneider S2 cell extract) (Drosophila melanogaster), one chain, as listed by the source, chain 2 of 2: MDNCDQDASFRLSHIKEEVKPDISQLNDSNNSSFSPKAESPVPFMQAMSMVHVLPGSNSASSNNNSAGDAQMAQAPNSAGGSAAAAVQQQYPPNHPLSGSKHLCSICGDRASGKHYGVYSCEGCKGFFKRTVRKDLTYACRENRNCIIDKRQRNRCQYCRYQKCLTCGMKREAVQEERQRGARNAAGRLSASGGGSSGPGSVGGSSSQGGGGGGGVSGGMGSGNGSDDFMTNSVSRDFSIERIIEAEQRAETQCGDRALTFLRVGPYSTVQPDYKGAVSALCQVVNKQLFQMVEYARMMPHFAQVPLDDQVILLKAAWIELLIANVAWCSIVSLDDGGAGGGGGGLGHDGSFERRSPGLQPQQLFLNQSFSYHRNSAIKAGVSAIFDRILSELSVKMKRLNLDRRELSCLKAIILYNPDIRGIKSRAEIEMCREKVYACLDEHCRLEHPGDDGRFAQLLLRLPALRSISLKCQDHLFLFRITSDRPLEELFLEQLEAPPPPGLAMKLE
EcR/usp complex (Schneider S2 cell extract) (Drosophila melanogaster), one chain, as listed by the source, chain 1 of 2: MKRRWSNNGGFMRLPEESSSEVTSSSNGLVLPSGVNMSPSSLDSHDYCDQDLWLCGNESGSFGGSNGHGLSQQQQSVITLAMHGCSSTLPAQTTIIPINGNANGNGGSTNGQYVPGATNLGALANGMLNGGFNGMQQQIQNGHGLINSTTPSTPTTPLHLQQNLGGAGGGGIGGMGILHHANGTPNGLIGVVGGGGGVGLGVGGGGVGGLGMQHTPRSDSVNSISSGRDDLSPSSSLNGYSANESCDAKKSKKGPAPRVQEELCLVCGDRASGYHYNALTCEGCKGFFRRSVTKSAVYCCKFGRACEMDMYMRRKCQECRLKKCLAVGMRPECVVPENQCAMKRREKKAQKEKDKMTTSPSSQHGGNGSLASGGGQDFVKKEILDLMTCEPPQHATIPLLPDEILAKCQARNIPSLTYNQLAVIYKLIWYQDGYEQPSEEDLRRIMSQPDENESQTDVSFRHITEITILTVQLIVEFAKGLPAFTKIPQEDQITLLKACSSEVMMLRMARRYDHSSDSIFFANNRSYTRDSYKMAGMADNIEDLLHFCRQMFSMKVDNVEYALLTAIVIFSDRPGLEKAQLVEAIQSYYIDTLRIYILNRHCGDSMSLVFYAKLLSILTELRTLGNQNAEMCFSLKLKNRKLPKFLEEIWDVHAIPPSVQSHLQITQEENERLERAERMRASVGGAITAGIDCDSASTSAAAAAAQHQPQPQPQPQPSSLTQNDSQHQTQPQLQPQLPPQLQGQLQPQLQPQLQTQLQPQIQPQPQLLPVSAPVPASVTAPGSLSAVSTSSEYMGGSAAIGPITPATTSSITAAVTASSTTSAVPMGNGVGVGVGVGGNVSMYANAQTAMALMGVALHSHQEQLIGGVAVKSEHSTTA

Key:
[1] = system: EcR/usp complex (Schneider S2 cell extract) (Drosophila melanogaster); test: EMSA; details: S2 extract; major complex supershifted by usp antibody; protein in an extract; label: 32P
[2] = system: EcR/usp complexes (embryo extract) (Drosophila melanogaster); test: EMSA; details: embryo extract 5-10 ug; usp antibody supershift; protein in an extract; label: 32P
[3] = system: RARα + usp of S2 or embryo extract (Homo sapiens / Drosophila melanogaster); test: EMSA; details: extract dramatically enhances binding; supershifted by usp antibody; protein in an extract; protein details: RARα in vitro translated, usp from fly extract; label: 32P
[4] = system: GEcR (GR N-terminal domain-EcR fusion) + usp EcR V258R,Q259P,E260P,P331L (Drosophila melanogaster); test: activity in cells; details: CAT induction by 20-OH-ecdysone, CV1 cells; none with GEcR alone; protein in cells
[5] = target: PPAR (rat) (Rattus norvegicus) (UniProt P37230); test: EMSA; details: receptor alone, very little or no binding; protein translated in vitro; label: 32P
[6] = target: T1, VDR (human) (Homo sapiens) (UniProt P11473); test: EMSA; details: receptor alone, very little or no binding; protein translated in vitro; label: 32P
T1 sequence (looked up, limits assumed): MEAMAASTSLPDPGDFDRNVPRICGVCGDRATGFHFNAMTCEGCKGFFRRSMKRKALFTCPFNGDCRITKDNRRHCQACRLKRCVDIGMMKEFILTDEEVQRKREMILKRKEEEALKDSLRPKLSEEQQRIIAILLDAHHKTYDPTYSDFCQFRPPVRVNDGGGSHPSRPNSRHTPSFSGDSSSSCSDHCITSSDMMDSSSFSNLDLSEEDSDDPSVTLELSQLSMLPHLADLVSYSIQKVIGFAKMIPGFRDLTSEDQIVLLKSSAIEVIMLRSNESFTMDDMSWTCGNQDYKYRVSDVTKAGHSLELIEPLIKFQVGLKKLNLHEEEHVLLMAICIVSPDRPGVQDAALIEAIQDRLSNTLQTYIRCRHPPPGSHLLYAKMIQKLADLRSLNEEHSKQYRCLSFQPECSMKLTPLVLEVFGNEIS

[7] = target: T2, TRβ (human) (Homo sapiens) (UniProt P10828); test: EMSA; details: receptor alone, very little or no binding; protein translated in vitro; label: 32P
T2 sequence (looked up, limits assumed): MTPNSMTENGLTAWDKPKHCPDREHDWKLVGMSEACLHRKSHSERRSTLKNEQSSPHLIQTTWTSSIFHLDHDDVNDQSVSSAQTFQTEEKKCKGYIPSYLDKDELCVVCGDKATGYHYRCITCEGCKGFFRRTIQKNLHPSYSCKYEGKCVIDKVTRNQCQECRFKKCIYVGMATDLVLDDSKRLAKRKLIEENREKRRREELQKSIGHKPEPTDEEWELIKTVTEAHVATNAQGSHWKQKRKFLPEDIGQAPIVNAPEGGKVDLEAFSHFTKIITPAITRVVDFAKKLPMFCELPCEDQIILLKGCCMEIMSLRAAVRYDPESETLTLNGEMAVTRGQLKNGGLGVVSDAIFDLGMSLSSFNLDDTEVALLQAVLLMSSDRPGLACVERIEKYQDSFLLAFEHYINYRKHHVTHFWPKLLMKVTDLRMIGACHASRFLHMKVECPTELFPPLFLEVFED

## ATTGGACAAGTGCATTGAACCCTTGTCTCT (double strand) [hsp27-EcRE]
[1]
  binding result: binds
[2]
  binding result: binds

## GGTTCACCGAAAGTTCA (double strand) [βRARE (DR5)]
[3]
  binding result: binds

## AGCTCGATGGACAAGTGCATTGAACCCTTGAGCTACCTGTTCACGTAACTTGGGAACTTCGA (double strand) [ΔMTV-EcRE5-CAT reporter EcRE oligonucleotide (5 copies)]
[4]
  activity on this sequence: active

## AGGACAAAGGTCA (double strand) [AOX-PPARE (DR1)]
[5]
  binding result: binds more weakly

## GGTTCACGAGGTTCA (double strand) [SPP1-VDRE (DR3, printed SSP1)]
[6]
  binding result: binds more weakly

## GGGTCATTTCAGGTCC (double strand) [MLV-TRE (DR4)]
[7]
  binding result: binds more weakly
